# Taken from: PubChem BioAssay AID743456 (Peter MacCallum Cancer Centre, 2014)
# Assay: 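miRNA mimics altering how resistant colon cancer cells respond to vorinostat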 (primary screen)
# System: human HCT116-VR colon cancer cells, a vorinostat-resistant HCT116 line
# Reagent: miRNA mimic
# Time to read-out: about 3 days from transfection to readout; drug present for the last 24 h
# Challenge: vorinostat at 2.5 µM final for 24 h
# Measured: 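Cell viability from CellTiter-Fluor signal and caspase activity from luminescence after 24 h vorinostat at 2.5 µM, given as robust z-scores and as ratios to mock-transfected wells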
# Scale: viability robust z-score and viability vs mock transfection: higher = more viable cells; caspase robust z-score: higher = more caspase activity, more apoptosis
# Active means: 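Active when viability drops or caspase activity climbs beyond robust z thresholds, with wells of poor cell health excluded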
# This is a random part of 878 reagents. Of all reagents, 27 (3.1%) are marked active. 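27 mimics are marked active, unlike an earlier stated count of 24; the viability threshold is described inconsistently.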 Entries without a mark were called inactive. No sequences are given here. Not stated in the record: the amount of reagent.
miRNA,viability robust z-score,caspase robust z-score,viability hit class,caspase hit class,viability vs mock transfection
hsa-miR-193a-3p,-2.88,4.29,no change,no change,0.3
hsa-miR-210,-0.27,0.21,no change,no change,0.74
hsa-miR-1273,-0.68,-0.46,no change,no change,0.7
hsa-miR-519d,1.33,0.41,no change,no change,0.98
hsa-miR-558,-0.06,3.68,no change,no change,0.74
hsa-miR-372,0.18,1.29,no change,no change,0.78

Entries listed so far whose target name begins with H or h:
miRNA,viability robust z-score,caspase robust z-score,viability hit class,caspase hit class,viability vs mock transfection
hsa-miR-193a-3p,-2.88,4.29,no change,no change,0.3
hsa-miR-210,-0.27,0.21,no change,no change,0.74
hsa-miR-1273,-0.68,-0.46,no change,no change,0.7
hsa-miR-519d,1.33,0.41,no change,no change,0.98
hsa-miR-558,-0.06,3.68,no change,no change,0.74
hsa-miR-372,0.18,1.29,no change,no change,0.78

The listing continues.
miRNA,viability robust z-score,caspase robust z-score,viability hit class,caspase hit class,viability vs mock transfection
hsa-miR-1178,-1.03,1.27,no change,no change,0.56
hsa-miR-1538,0.7,-0.08,no change,no change,0.9
hsa-miR-132,-0.16,-0.38,no change,no change,0.76
hsa-miR-1909,-0.61,1.46,no change,no change,0.7
hsa-miR-518f,-0.56,-0.41,no change,no change,0.7
hsa-miR-211,-0.76,-0.86,no change,no change,0.68
hsa-miR-2110,-0.71,1.25,no change,no change,0.62
hsa-miR-874,-1.63,4.11,no change,no change,0.55
hsa-miR-937,0.9,-0.14,no change,no change,0.91
hsa-miR-624*,-0.32,-0.78,no change,no change,0.76
hsa-miR-548g,0.91,-0.36,no change,no change,0.94
hsa-miR-582-3p,0.34,1.44,no change,no change,0.84
hsa-miR-98,0.6,-0.21,no change,no change,0.89
hsa-miR-1300,-4.2,1.06,no change,no change,0.16
